These are yes or no findings as the source states them, for the method shown. Binding seen in cells or lysates may run through a third protein. Some entries that bind do so weakly or less than the wild type. Where a sequence is shown, tags or fusion partners need not be part of it.
Biological target: LRP1, endogenous in differentiated AD-NSC cultures (human (endogenous in iPSC-derived AD-NSC cultures)) (UniProt Q07954)
Test: co-IP; differentiated AD-NSC cultures incubated with 1 μM Aβ42 and various concentrations of purified DKK1-Flag or DKK3-Flag for 30 min; total extract precipitated with anti-LRP1 antibody; immunoblot; only the binder purified

The chains behind the UniProt entries cited, without tags or fusion partners. Residues count along the entry.
UniProt Q07954, residues 20-4544: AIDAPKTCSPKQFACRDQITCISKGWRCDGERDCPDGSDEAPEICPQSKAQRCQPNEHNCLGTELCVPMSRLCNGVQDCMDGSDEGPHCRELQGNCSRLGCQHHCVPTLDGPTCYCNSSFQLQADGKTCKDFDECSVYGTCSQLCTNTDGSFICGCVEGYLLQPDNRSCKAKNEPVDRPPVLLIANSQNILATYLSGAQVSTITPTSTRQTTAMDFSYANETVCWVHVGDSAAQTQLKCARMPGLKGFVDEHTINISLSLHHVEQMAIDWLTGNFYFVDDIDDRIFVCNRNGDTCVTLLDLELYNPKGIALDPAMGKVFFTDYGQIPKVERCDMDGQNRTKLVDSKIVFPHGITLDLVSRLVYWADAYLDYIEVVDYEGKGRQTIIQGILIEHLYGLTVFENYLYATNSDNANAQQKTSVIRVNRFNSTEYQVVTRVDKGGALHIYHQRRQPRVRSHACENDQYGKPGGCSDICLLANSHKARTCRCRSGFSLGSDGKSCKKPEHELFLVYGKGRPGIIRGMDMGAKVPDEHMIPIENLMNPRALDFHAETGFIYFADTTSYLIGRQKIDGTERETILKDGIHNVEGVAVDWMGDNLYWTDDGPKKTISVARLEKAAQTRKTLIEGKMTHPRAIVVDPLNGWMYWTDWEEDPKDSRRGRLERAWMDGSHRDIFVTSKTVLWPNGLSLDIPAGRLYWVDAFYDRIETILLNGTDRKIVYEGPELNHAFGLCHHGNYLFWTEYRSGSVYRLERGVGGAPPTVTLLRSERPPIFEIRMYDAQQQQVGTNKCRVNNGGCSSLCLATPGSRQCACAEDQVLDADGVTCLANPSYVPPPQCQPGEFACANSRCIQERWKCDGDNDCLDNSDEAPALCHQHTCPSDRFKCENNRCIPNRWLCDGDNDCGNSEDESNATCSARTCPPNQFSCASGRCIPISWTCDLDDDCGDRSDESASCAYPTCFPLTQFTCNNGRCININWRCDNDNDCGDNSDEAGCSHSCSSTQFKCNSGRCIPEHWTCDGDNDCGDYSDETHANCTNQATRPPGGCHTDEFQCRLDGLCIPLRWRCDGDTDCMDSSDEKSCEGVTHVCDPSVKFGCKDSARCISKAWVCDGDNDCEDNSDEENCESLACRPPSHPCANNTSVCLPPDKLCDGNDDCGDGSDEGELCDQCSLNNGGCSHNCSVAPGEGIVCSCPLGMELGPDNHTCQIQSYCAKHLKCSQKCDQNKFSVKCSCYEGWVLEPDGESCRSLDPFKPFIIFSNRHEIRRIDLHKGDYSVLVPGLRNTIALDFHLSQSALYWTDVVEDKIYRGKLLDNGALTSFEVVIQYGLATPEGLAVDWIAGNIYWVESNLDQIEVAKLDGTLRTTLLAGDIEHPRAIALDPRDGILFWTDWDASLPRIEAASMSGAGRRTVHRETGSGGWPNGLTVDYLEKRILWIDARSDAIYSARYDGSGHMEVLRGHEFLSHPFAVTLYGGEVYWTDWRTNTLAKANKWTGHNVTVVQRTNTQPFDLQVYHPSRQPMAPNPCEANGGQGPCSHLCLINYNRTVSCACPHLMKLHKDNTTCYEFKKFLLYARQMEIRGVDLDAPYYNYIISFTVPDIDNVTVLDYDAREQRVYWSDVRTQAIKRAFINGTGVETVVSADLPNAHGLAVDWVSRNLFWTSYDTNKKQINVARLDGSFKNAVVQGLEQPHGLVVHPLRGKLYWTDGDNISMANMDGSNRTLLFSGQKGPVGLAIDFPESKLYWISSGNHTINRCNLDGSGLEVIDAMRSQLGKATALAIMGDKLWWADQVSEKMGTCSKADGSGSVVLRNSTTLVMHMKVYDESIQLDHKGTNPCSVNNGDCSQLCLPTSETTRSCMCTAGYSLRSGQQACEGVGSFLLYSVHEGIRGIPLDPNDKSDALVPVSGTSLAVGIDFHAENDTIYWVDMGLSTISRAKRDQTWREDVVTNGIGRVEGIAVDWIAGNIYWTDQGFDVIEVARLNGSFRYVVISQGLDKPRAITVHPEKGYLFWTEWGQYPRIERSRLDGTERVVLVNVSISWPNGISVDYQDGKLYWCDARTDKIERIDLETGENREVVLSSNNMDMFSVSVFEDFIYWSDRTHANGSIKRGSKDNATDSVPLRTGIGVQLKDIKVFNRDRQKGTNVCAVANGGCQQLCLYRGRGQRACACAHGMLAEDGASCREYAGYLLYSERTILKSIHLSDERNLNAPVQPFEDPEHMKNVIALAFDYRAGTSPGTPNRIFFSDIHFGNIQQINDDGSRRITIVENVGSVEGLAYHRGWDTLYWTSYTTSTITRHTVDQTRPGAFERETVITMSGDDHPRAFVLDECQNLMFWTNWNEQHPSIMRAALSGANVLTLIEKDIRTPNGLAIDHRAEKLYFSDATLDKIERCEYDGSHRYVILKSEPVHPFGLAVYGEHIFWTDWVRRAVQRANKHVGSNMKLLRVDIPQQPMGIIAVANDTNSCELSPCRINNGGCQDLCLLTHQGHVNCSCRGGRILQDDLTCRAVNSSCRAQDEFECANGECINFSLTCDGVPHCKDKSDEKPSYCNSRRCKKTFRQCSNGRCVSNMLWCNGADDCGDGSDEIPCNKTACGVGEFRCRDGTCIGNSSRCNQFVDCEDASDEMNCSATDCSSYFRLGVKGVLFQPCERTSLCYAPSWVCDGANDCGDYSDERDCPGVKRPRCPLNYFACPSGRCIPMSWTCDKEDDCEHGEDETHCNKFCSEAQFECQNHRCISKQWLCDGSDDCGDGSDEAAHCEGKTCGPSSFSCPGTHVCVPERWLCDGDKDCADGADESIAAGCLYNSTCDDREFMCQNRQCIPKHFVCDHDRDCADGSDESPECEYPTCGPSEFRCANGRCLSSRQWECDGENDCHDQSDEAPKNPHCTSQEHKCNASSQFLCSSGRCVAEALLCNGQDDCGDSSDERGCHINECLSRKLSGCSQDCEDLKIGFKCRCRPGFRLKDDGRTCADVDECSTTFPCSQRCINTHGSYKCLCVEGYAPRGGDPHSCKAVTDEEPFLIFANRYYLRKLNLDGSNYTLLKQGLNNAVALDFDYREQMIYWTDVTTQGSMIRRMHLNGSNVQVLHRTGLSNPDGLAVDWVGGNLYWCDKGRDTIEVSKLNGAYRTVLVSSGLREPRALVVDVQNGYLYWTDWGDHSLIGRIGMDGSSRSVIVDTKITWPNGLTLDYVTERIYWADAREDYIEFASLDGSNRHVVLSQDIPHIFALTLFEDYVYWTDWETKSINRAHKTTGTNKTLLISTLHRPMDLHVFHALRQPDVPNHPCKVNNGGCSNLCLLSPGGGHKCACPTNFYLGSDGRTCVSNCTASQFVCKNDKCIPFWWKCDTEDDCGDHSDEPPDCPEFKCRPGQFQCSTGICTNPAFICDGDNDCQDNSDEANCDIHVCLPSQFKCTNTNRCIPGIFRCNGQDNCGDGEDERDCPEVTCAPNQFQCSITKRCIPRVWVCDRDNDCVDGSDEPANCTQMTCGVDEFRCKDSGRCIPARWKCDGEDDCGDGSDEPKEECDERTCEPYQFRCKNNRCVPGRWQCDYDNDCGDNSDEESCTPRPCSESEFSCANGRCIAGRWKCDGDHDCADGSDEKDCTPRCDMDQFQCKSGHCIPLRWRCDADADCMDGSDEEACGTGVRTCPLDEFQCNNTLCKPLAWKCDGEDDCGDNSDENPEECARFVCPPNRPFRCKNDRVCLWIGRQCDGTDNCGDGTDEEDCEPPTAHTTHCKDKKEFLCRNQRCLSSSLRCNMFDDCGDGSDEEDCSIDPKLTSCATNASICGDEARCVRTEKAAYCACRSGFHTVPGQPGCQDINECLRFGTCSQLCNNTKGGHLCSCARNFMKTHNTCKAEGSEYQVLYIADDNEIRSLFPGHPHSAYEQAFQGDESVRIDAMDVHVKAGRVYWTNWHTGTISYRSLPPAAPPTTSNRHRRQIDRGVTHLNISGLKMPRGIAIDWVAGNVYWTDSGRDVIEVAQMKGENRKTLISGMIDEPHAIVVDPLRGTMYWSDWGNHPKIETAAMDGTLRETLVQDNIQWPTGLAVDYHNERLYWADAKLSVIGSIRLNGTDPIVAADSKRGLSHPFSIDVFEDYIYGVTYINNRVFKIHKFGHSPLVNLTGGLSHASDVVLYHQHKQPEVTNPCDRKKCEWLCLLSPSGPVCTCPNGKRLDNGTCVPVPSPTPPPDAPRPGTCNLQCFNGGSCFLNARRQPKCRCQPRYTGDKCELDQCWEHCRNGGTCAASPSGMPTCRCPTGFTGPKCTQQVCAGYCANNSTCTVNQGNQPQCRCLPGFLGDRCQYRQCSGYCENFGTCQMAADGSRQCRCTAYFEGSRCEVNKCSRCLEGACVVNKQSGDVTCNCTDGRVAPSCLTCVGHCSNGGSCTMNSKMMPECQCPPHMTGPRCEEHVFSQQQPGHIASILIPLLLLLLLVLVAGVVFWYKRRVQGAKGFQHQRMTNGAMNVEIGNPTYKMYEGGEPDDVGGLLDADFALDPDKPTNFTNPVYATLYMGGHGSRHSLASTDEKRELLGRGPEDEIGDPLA

B1: DKK1-Flag (ligand, UniProt O94907 32-266)
chain: TLNSVLNSNAIKNLPPPLGGAAGHPGSAVSAAPGILYPGGNKYQTIDNYQPYPCAEDEECGTDEYCASPTRGGDAGVQICLACRKRRKRCMRHAMCCPGNYCKNGICVSSDQNHFRGEIEETITESFGNDHSTLDGYSRRTTLSSKMYHTKGQEGSVCLRSSDCASGLCCARHFWSKICKPVLKEGQVCTKHRRKGSHGLEIFQRCYCGEGLSCRIQKDHHQASNSSRLHTCQRH
- binding: binds

Source: PMC12594171, “DKK3-LRP1 complex and a chemical inhibitor regulate Aβ clearance in models of Alzheimer’s disease” (Science Advances, 2025)
